Data as given in patent US20180203025A1, “HDL THERAPY MARKERS” (Cerenis Therapeutics Holding SA, priority 2014, published 2018).
Some of these results come from one statement about several compounds together.

Tested on: ABCG1 mRNA in mouse macrophages (J774)
Assay: ABCG1 gene expression (real-time PCR) in J774 macrophages
Assay type: cell-based
Conditions: Study E; 6 hours
Description: J774 were seeded on 6 well plates (300,000 cells/well) and loaded with oxidized-LDL without the use of ^3H-cholesterol. […] Gene expression was assayed using the protocols described in Sections 8.3.2 (RNA extraction); 8.3.4 (reverse transcription), and 8.3.5 (qPCR). ABCG1 gene expression was determined with Taqman probe Mm00437390.m1 according to the manufacturer's protocol. The reference gene used is HPRT1 (Taqman probe: Mm00446968.m1).
J774 were seeded on 6 well plates (300,000 cells/well) and loaded with oxidized-LDL. […] Gene expression was assayed using the protocols described in Sections 8.3.2 (RNA extraction); 8.3.4 (reverse transcription), and 8.3.5 (qPCR). SR-BI gene (Taqman probe Mm00450234.m1), ABCG1 (Taqman probe Mm00437390.m1), SREBP1 (Taqman probe Mm01138344.m1) and ABCA1 (Taqman probe Mm00442646.m1) expression were determined according to the manufacturer's protocol. […]
(§1) J774 were seeded on 6 well plates (300,000 cells/well) and loaded with oxidized-LDL. […] ABCG1 (Taqman probe Mm00437390.m1) and ABCA1 (Taqman probe Mm00442646.m1) expression were determined according to the manufacturer's protocol. […]
as §1

Substance: CER-001: engineered recombinant human apolipoprotein A-I HDL with sphingomyelin and DPPG; protein-to-phospholipid ratio 1:2.7, 97% Sph and 3% DPPG
- doses necessary to decrease half of the ABCG1 mRNA level: above 75 μg/mL
